Publication PMC5268445
These are yes or no findings as the source states them, for the method shown. Binding seen in cells or lysates may run through a third protein. Some entries that bind do so weakly or less than the wild type.

By UniProt entry, the sequences of proteins in these tests, tags left out.
UniProt P37238: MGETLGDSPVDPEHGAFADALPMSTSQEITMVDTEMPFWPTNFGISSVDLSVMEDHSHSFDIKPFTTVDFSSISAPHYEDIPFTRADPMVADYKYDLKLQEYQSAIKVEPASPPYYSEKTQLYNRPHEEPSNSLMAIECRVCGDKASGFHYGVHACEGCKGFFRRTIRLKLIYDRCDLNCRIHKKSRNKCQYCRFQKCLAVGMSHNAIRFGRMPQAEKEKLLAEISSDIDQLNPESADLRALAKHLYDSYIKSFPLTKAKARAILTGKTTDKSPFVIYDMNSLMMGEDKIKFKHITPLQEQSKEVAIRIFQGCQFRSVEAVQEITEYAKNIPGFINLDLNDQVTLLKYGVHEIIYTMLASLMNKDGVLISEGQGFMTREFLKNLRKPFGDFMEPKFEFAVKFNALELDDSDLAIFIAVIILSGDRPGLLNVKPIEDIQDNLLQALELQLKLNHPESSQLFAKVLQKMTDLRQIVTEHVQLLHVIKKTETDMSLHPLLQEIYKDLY

Tests used:
[1] = biological target: peroxisome proliferator-activated receptor γ (mouse (endogenous in immortalized brown adipocytes and 3T3-L1 adipocytes)) (UniProt P37238); test: co-IP; endogenous proteins, nuclear extracts of immortalized brown adipocytes on day 4 of differentiation; which protein was precipitated is not told
[2] = biological target: peroxisome proliferator-activated receptor γ (mouse (endogenous in immortalized brown adipocytes and 3T3-L1 adipocytes)) (UniProt P37238); test: co-IP; endogenous proteins, nuclear extracts of 3T3-L1 adipocytes on day 4 of differentiation; which protein was precipitated is not told

B1: megakaryoblastic leukemia/myocardin-like 1 (protein, UniProt Q8K4J6 1-964)
chain: MTLLEPEMLMMAVQSVLQLKLQQRRTREELVSQGIMPPLKSPAAFHEQRRSLERARTEDYLKRKIRSRPERAELVRMHILEETSAEPSLQAKQLKLKRARLADDLNEKIAQRPGPMELVEKNILPVESSLKEAIIVGQVNYPKVADSSSFDEDSSDALSPEQPASHESQGSVPSPLESRVSDPLPSATSISPTQVLSQLPMAPDPGETLFLAEQPPLPPAPLLPPSLANGSIVPTAKPAPTLIKQSQPKSASEKSQRSKKAKELKPKVKKLKYHQYIPPDQKQDKGAPAMDSSYAKILQQQQLFLQLQILNQQQQQQQQQHYNYQAILPAPPKPSAETPGSSAPTPSRSLSTSSSPSSGTPGPSGLARQSSTALAAKPGALPANLDDMKVAELKQELKLRSLPVSGTKTELIERLRAYQDQVSPAPGAPKAPATTSVLSKAGEVVVAFPAALLSTGSALVTAGLAPAEMVVATVTSNGMVKFGSTGSTPPVSPTPSERSLLSTGDENSTPGDAFGEMVTSPLTQLTLQASPLQIVKEEGARAASCCLSPGARAELEGLDKDQMLQEKDKQIEELTRMLQQKQQLVELLRLQLEQQKRAQQPAPASSPVKRESGFSSCQLSCQPQGSAHAFGSGLVVPTTNHGDTQAPAPESPPVVVKQEAGPPEPDLAPSSQLLLGSQGTSFLKRVSPPTLVTDSTGTHLILTVTNKSADGPGLPAGSPQQPLSQPGSPAPGPPAQMDLEHPPQPPFATPTSLLKKEPPGYEETVTQQPKQQENGSSSQHMDDLFDILIQSGEISADFKEPPSLPGKEKSPPAAAAYGPPLTPQPSPLSELPQAAPPPGSPTLPGRLEDFLESSTGLPLLTSGHEGPEPLSLIDDLHSQMLSSSAILDHPPSPMDTSELHFAPEPSSGMGLDLAVGHLDSMDWLELSSGGPVLSLAPLSTAAPSLFSMDFLDGHDLQLHWDSCL
binding [1]: binds | binding [2]: binds
